This is one part of the list. Shown are side measurements of this screen, not its main read-out; they come without a call. The list favours compounds with an active or inconclusive main result. The note in brackets gives the kind of curve behind each potency; many fits are weak.
Assay: qHTS Assay for Modulators of Lamin A Splicing
Settings: HeLa LMNA splicing GFP/RFP minigene ratio, 48 h
Procedure, shortened: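 S3 HeLa stable clones carrying a lamin A-EGFP splicing minigene plus DsRed2 were seeded at 600 cells/well in Opti-MEM with 2% FBS, pin-dosed and incubated 48 h at 37°C. Acumen cytometry (488 nm) gave the GFP/RFP total-intensity ratio.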

[1] = measured here: RFP viability control channel
[2] = measured here: GFP splicing reporter channel

Compound | AC50 [1] | AC50 [2]
COc1ccc(NS(=O)(=O)c2ccc3c(c2)CC(C)N3C(C)=O)c(OC)c1 (centres undefined) | 0.0398 µM [falling, full curve, poor fit] | –
CCOC(=O)C1=C(CN2CCN(c3cccc(OC)c3)CC2)NC(=O)NC1c1ccc(OC)cc1 (centres undefined) | 35.5 µM [falling, partial curve, poor fit] | 15.8 µM [falling, partial curve, poor fit]
O=C(CN(C(=O)c1ccccc1Cl)N1C(=O)C2C3C=CC(C3)C2C1=O)c1cccs1 (centres undefined) | 0.00355 µM [rising, full curve, poor fit] | –
CCOc1ccc(NC(=O)CSc2nc(C)cc(C)n2)cc1 | 35.5 µM [rising, single point] | –
O=C(NC1CCCCC1)c1ccc(CNc2ccccc2)o1 | 7.94 µM [rising, partial curve, poor fit] | 7.94 µM [rising, partial curve, poor fit]
CCCC(=NCCc1c(C)[nH]c2ccccc12)C1=C(O)CC(c2ccccc2)CC1=O (centres undefined) | 3.98 µM [rising, partial curve, poor fit] | –
O=C(C1CCN(C2CCN(Cc3ccc4cc(F)ccc4n3)CC2)CC1)N1CCCC1 | – | 14.1 µM [falling, single point]
CSc1ccc(C(=O)c2[nH]c(=O)[nH]c2C)cc1 | – | 1.41 µM [rising, full curve, poor fit]
CCOC(=O)c1cc(-c2ccccc2)n(CCC(=O)Nc2ccc(C)cc2Cl)c1C | 0.0891 µM [falling, full curve, poor fit] | –
CC1CCCCN1c1nc(-c2ccncc2)nc2ccccc12 (centres undefined) | 15.8 µM [falling, partial curve] | 7.94 µM [falling, partial curve]
CCCc1ccc(-c2csc(NC(=O)Cc3cccs3)n2)cc1 | 14.1 µM [rising, partial curve, poor fit] | –
O=C(Nc1ccc(F)cc1F)c1csc(-c2ccccc2)n1 | 8.91 µM [falling, partial curve, poor fit] | –
O=C(c1ccccc1)N1CCOC12CCN(c1ncc(C(F)(F)F)cc1Cl)CC2 | 35.5 µM [rising, single point] | –
COc1cc(-c2n[nH]c(=S)n2-c2cc(C(F)(F)F)ccc2Cl)cc(OC)c1OC | 22.4 µM [rising, partial curve, poor fit] | –
Cc1cc(C)nc(NC2=NCCN2C(=S)Nc2c(C)cccc2C)n1 | – | 0.0251 µM [falling, full curve, poor fit]
Cc1ccc(Cl)cc1N(Cc1ccc(C(=O)NCc2cccnc2)cc1)S(=O)(=O)c1ccccc1 | 35.5 µM [rising, single point] | 35.5 µM [rising, single point]
CC1CCCCC12NC(=O)N(CC(=O)Nc1sc3c(c1C(N)=O)CCC3)C2=O (centres undefined) | 4.47 µM [falling, partial curve] | –
CCOC(=O)c1oc2ccc(S(=O)(=O)Nc3ccc4c(c3)n(C)c(=O)n4C)cc2c1C | 12.6 µM [rising, partial curve, poor fit] | –
CCCc1ccc(-c2cc(NC(=O)CSc3n[nH]c(N)n3)n(-c3ccccc3)n2)cc1 | – | 10 µM [rising, partial curve]

Compound | AC50 [1] | AC50 [2]
O=C(CSc1nc2ccccc2c(=O)[nH]1)c1cccs1 | 35.5 µM [rising, single point] | –
Cc1ccc(Cl)cc1N1CCN(C(=O)c2cc(S(=O)(=O)N3CCCCCC3)cn2C)CC1 | 11.2 µM [falling, partial curve, poor fit] | –
O=Nc1c(O)n(Cc2cccc(C(F)(F)F)c2)c2ccccc12 | – | 0.794 µM [falling, full curve, poor fit]
COC(=O)c1ccc2c(c1)N(CC(=O)Nc1cccc(C(F)(F)F)c1)C(=O)c1ccccc1S2 | 5.62 µM [rising, single point] | –
CCOC(=O)CC(C#N)c1cn(C)c2ccccc12 (centres undefined) | – | 6.31 µM [falling, single point]
O=C(NCc1ccccc1Cl)c1ccc2c(c1)SC1=NS(=O)(=O)CCN12 | – | 10 µM [falling, partial curve]
CC(=O)O[C@H]1CSC[C@H]1NC(=O)c1ccccc1 | – | 4.47 µM [rising, full curve, poor fit]
COc1ccc(NC(=O)C2CCCN(S(=O)(=O)c3ccc4c(c3)CCCN4C(C)=O)C2)cc1 (centres undefined) | – | 20 µM [falling, single point]
Cc1nc(N2CCCCC2)sc1C(=O)c1ccc(Cl)c([N+](=O)[O-])c1 | 12.6 µM [rising, single point] | –
ClC1(Cl)CC1CSc1ncn[nH]1 (centres undefined) | – | 0.2 µM [rising, full curve, poor fit]
Nc1c(CO)nnn1-c1ccccc1 | – | 35.5 µM [falling, single point]
O=S(=O)(Cc1ccccc1)Nc1ccc(Br)cn1 | – | 0.00891 µM [rising, full curve]
Cc1nc(-c2cccc(S(=O)(=O)N3CCC(C)CC3)c2)cs1 | 17.8 µM [rising, single point] | 12.6 µM [rising, single point]
O=S(=O)(Nc1cccc(-c2ccc(N3CCCC3)nn2)c1)c1ccc(F)cc1F | 3.98 µM [falling, partial curve, poor fit] | 35.5 µM [falling, single point]
COc1ccc(-c2cn3nc(N4CCCC(C(=O)NCc5ccccc5C)C4)sc3n2)cc1 (centres undefined) | 12.6 µM [falling, partial curve] | –
CC(=O)c1c(C)[nH]c(C(=O)Nc2c(C)n(C)n(-c3ccccc3)c2=O)c1C | – | 0.631 µM [falling, full curve]
COc1ccc(Cn2ccnc2SCC(=O)Nc2cc(C(F)(F)F)ccc2Cl)cc1 | 15.8 µM [rising, partial curve, poor fit] | 1 µM [rising, full curve, poor fit]
COc1ccc(CN=C2NN=C(c3cccc(OC)c3)CS2)cc1 | – | 15.8 µM [falling, partial curve, poor fit]

Three entries already listed, ordered by count of non-hydrogen atoms, low to high.
Compound | AC50 [1] | AC50 [2]
COc1ccc(CN=C2NN=C(c3cccc(OC)c3)CS2)cc1 | – | 15.8 µM [falling, partial curve, poor fit]
COc1cc(-c2n[nH]c(=S)n2-c2cc(C(F)(F)F)ccc2Cl)cc(OC)c1OC | 22.4 µM [rising, partial curve, poor fit] | –
Cc1ccc(Cl)cc1N1CCN(C(=O)c2cc(S(=O)(=O)N3CCCCCC3)cn2C)CC1 | 11.2 µM [falling, partial curve, poor fit] | –

From PubChem BioAssay AID1487 (National Center for Advancing Translational Sciences (NCATS), 2009)
